Measurements taken from publication PMC5663490 (PLoS ONE, 2017).
Results are given in words; binding and its absence hold for the method and conditions named. Binding can be weak; no strength is given. Tags and fused reporters may be left off the sequences shown.

Columns and labels:
[1] = biological target: Sx1_(1-261)-His (rat); assay: pull-down; His-tagged Syntaxin incubated with detagged Munc18 (1:2 molar ratio) for 2 h, 24 h and 48 h at 4°C, then TALON Co2+ resin 1 h at 4°C; washed with 25 mM TrisHCl pH 7.5, 150 mM NaCl, 10% glycerol, 0.1% Triton-X 100, 15 mM imidazole, 2 mM β-ME; SDS-PAGE, Coomassie Blue; both purified
[2] = biological target: ΔNSx1_(25-261)-His (rat); assay: as above

- binding [1]: binds
- binding [2]: binds weakly
B1: detagged Munc18c (protein, UniProt Q60770 1-592)
chain: MAPPVSERGLKSVVWRKIKTAVFDDCRKEGEWKIMLLDEFTTKLLSSCCKMTDLLEEGITVIENIYKNREPVRQMKALYFISPTPKSVDCFLRDFGSKSEKKYKAAYIYFTDFCPDSLFNKIKASCSKSIRRCKEINISFIPQESQVYTLDVPDAFYYCYSPDPSNASRKEVVMEAMAEQIVTVCATLDENPGVRYKSKPLDNASKLAQLVEKKLEDYYKIDEKGLIKGKTQSQLLIIDRGFDPVSTVLHELTFQAMAYDLLPIENDTYKYKTDGKEKEAVLEEDDDLWVRVRHRHIAVVLEEIPKLMKEISSTKKATEGKTSLSALTQLMKKMPHFRKQISKQVVHLNLAEDCMNKFKLNIEKLCKTEQDLALGTDAEGQRVKDSMLVLLPVLLNKNHDNCDKIRAVLLYIFGINGTTEENLDRLIHNVKIEDDSDMIRNWSHLGVPIVPPSQQAKPLRKDRSAEETFQLSRWTPFIKDIMEDAIDNRLDSKEWPYCSRCPAVWNGSGAVSARQKPRTNYLELDRKNGSRLIIFVIGGITYSEMRCAYEVSQAHKSCEVIIGSTHILTPRKLLDDIKMLNKSKDKVSFKDE
